{
  "sequences": {"note": "The chains behind the UniProt entries cited, without tags or fusion partners.", "UniProt Q8IDR3": "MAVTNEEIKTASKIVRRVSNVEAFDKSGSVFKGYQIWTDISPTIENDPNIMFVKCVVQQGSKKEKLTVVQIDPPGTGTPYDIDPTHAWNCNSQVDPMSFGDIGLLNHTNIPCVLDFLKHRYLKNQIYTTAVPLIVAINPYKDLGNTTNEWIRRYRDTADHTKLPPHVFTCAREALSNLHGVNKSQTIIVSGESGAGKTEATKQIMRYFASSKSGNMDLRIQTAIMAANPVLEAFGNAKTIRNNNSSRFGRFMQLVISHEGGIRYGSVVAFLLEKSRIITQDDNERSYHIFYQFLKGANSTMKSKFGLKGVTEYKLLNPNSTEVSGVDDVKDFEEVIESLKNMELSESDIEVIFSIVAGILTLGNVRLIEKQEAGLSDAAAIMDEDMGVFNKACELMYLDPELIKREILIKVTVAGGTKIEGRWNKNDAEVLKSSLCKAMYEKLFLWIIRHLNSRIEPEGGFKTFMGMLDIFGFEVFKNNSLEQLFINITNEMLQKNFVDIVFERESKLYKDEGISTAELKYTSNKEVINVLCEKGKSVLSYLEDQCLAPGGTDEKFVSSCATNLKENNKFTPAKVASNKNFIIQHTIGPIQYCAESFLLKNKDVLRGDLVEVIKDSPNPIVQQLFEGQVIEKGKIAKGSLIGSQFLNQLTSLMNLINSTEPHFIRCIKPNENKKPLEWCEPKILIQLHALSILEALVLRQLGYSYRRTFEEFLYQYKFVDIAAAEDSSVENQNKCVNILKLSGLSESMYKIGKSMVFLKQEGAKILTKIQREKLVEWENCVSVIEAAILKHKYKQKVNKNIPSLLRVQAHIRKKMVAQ", "UniProt Q8I5I8": "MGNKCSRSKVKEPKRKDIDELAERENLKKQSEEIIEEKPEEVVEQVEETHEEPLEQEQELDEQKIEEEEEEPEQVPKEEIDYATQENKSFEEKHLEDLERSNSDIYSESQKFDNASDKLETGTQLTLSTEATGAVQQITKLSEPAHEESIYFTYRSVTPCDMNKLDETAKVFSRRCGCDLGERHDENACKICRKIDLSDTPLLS", "UniProt Q8III1": "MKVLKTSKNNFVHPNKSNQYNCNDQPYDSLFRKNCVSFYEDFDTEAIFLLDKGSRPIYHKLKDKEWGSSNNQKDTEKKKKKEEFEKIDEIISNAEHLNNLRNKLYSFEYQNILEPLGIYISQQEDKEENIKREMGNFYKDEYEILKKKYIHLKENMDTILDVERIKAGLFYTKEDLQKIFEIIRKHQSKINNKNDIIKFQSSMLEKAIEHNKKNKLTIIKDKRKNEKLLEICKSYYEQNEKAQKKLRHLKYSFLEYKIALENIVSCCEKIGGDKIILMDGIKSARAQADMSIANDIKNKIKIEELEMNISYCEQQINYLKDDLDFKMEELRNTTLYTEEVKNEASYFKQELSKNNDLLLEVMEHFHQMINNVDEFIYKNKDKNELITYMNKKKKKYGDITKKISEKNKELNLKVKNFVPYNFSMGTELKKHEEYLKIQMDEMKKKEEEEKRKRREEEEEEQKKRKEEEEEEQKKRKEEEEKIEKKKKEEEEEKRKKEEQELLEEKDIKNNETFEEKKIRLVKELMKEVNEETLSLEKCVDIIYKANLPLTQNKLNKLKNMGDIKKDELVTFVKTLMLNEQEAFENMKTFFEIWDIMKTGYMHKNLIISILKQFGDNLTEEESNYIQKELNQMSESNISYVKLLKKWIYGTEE", "UniProt Q8I5L6": "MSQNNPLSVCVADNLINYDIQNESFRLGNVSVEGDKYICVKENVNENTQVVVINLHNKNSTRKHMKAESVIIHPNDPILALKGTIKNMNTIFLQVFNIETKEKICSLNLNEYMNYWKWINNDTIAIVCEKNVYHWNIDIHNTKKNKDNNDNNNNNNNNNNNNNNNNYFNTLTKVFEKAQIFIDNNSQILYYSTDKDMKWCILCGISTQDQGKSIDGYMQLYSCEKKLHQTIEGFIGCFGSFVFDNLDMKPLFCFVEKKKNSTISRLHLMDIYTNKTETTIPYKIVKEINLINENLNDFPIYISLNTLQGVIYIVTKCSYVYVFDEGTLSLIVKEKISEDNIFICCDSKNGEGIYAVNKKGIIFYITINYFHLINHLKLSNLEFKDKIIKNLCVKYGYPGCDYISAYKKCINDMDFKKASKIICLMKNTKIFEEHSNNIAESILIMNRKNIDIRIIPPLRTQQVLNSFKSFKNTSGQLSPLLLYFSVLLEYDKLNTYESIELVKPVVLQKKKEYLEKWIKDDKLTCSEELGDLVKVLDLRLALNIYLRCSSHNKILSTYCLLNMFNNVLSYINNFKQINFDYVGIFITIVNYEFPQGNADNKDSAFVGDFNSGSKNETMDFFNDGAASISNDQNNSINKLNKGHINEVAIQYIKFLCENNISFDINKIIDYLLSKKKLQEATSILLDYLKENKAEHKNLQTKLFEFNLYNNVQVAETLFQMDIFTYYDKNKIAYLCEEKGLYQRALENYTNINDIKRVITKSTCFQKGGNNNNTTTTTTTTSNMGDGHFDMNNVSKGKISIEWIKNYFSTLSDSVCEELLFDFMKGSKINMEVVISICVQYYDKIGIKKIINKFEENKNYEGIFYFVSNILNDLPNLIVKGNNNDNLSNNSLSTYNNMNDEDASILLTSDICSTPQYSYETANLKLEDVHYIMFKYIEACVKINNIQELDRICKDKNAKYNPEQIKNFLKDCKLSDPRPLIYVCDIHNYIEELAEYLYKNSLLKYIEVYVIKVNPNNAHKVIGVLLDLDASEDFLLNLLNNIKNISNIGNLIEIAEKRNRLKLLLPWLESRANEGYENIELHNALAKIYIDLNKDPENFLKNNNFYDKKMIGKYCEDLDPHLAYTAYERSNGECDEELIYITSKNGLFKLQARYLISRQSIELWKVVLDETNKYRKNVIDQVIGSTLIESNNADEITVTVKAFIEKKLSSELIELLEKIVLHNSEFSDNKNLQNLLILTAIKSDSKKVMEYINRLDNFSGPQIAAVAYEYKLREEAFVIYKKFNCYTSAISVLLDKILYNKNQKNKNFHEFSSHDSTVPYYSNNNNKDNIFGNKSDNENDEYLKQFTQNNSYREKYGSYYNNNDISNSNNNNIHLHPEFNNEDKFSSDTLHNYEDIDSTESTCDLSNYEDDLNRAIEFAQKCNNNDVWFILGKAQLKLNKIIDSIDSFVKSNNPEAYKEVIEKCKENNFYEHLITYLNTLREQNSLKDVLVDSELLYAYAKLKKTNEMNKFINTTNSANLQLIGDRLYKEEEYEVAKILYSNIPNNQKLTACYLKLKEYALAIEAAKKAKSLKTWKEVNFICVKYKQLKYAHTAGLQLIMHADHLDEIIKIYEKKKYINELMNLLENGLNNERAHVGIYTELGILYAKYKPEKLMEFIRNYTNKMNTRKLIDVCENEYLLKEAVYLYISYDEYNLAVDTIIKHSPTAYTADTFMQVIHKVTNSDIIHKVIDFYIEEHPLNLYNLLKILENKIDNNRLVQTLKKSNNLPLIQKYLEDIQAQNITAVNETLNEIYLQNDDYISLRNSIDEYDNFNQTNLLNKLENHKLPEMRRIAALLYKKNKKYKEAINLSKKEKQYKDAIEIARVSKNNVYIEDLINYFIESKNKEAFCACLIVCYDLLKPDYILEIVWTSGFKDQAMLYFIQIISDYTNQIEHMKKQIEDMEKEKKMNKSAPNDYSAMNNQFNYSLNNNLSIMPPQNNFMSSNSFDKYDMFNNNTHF"},
  "source": "paper PMC4424349",
  "note": "Results are given in words; binding and its absence hold for the method and conditions named. Binding seen in cells or lysates may run through a third protein. A yes stands for co-enrichment or nearness to the bait. Other partners may have been found. No binding means not detected with the bait. Tags and fused reporters may be left off the sequences shown.",
  "data": [
    {"biological_target": "T1, PfMyoB-GFP (Plasmodium falciparum myosin B with C-terminal GFP) (Plasmodium falciparum 3D7) (UniProt Q8I465)", "T1 sequence": "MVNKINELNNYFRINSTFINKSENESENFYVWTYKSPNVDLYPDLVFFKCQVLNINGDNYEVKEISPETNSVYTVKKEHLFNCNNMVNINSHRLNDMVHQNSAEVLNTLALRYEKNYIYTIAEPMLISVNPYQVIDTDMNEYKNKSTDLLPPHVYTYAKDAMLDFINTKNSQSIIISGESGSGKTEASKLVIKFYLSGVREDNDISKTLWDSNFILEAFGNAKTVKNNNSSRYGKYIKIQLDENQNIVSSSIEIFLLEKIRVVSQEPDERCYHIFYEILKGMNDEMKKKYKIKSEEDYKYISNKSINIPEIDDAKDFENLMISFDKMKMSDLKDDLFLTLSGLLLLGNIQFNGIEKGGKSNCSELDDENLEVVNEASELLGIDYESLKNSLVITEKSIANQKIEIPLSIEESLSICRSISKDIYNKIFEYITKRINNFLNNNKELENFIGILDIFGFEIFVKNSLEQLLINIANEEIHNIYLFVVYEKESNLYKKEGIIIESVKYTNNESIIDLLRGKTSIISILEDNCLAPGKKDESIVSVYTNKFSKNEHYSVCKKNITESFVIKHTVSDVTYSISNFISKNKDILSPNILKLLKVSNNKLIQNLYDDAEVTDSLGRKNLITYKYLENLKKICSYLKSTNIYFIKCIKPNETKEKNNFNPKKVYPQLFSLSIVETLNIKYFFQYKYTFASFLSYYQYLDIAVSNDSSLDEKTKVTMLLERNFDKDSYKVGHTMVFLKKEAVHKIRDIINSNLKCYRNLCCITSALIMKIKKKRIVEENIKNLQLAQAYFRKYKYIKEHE", "test": "affinity purification with mass spectrometry; GFP-Trap immunoprecipitates of schizont lysates, SDS-PAGE, trypsin digestion, LC-MS/MS; proteins with three or more peptides and absent from the 3D7 control", "values": [
      {"substance": "Myosin A (MyoA), endogenous untagged (from UniProt Q8IDR3 1-818)", "binding": "no binding"},
      {"substance": "SEC31", "binding": "binds"},
      {"substance": "acyl-CoA synthetase", "binding": "binds"},
      {"substance": "glideosome-associated protein 45 (GAP45) (from UniProt Q8I5I8 1-204)", "binding": "no binding"},
      {"substance": "glideosome-associated protein 50 (GAP50)", "binding": "no binding"},
      {"substance": "myosin light chain B (MLC-B), PF3D7_1118700 (from UniProt Q8III1 1-652)", "binding": "binds"},
      {"substance": "polyubiquitin", "binding": "binds"},
      {"substance": "putative clathrin heavy chain (from UniProt Q8I5L6 1-1997)", "binding": "binds"}
    ]}
  ]
}
